Reference: paper doi:10.1101/2024.05.31.595485
Results are given in words; binding and its absence hold for the method and conditions named. Binding seen in cells or lysates may run through a third protein. Some results given as binding are weak or reduced against the parent protein; the word gives no strength. Where a sequence is shown, tags or fusion partners need not be part of it.

Chains of the proteins cited; added tags and fusions are not shown.
UniProt Q9CW03: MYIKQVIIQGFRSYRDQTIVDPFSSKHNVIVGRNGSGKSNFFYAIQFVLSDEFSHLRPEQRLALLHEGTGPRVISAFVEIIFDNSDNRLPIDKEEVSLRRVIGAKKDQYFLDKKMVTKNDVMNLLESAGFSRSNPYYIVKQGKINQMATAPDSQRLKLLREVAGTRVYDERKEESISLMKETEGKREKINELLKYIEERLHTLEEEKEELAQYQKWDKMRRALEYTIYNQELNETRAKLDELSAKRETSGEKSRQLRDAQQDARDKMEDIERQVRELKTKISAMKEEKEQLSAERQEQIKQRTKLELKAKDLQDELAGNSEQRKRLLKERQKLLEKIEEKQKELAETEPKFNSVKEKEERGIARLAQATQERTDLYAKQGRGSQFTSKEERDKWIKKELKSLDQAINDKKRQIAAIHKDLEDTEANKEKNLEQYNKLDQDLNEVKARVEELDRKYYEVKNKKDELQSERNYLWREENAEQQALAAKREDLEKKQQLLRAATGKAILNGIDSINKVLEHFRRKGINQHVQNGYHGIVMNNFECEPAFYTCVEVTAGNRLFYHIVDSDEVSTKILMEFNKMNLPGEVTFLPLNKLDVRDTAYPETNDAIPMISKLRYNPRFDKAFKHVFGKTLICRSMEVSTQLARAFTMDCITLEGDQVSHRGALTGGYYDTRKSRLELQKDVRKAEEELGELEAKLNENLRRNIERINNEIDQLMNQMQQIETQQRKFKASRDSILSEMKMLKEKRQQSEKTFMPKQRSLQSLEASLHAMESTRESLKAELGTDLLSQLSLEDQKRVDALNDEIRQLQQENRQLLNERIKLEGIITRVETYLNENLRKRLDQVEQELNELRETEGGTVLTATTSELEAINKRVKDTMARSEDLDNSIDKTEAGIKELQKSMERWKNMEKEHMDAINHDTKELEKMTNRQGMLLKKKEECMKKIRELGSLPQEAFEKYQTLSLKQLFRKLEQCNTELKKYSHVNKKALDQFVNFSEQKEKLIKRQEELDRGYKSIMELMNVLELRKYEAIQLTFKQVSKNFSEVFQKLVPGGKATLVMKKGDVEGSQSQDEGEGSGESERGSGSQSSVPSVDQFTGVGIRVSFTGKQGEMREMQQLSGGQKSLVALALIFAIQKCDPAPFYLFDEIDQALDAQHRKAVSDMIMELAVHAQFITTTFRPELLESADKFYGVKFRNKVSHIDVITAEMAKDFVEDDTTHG

Molecular target: T1, STAG3 (endogenous, chromatin-bound) (mouse (endogenous in mESCs)) (UniProt O70576)
T1 sequence: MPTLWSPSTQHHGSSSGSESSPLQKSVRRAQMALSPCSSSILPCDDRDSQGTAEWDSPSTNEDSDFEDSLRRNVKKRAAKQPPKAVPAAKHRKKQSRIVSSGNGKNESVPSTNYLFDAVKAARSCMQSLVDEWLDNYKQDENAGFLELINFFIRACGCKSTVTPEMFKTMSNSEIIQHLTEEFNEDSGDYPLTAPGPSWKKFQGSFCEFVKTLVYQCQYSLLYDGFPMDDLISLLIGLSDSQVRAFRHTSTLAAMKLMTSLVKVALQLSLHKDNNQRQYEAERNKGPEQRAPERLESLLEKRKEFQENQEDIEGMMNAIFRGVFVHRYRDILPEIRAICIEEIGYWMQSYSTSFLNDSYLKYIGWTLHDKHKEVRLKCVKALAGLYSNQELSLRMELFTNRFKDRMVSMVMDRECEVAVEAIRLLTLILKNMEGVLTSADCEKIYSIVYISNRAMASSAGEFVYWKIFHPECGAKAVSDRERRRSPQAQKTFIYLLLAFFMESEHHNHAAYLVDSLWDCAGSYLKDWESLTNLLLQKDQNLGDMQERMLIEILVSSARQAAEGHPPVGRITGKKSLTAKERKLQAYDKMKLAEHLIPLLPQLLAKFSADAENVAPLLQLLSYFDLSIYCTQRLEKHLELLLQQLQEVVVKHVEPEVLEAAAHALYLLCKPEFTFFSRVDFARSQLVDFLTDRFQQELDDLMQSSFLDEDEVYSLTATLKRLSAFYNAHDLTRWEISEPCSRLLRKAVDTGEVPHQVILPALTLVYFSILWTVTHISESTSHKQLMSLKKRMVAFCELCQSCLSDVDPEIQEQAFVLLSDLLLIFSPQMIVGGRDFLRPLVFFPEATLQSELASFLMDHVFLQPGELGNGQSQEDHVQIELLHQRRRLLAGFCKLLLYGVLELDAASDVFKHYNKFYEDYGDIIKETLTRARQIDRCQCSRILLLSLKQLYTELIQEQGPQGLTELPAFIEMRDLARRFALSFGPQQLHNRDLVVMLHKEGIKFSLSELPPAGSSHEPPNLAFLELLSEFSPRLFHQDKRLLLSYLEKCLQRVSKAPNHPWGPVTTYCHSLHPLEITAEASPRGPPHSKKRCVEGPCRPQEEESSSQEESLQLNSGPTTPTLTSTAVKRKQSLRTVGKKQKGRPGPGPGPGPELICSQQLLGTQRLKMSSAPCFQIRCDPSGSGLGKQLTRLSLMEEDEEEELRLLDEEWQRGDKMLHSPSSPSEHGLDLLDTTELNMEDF
Assay: co-IP

With SMC3 (from UniProt Q9CW03 1-1217) the binding was “binds”.
